According to PMC4365484:
No constants are given. Whether binding was seen depends on the method and setting. Where a sequence is shown, tags or fusion partners need not be part of it.

By UniProt entry, the sequences of proteins in these tests, tags left out.
UniProt Q15691: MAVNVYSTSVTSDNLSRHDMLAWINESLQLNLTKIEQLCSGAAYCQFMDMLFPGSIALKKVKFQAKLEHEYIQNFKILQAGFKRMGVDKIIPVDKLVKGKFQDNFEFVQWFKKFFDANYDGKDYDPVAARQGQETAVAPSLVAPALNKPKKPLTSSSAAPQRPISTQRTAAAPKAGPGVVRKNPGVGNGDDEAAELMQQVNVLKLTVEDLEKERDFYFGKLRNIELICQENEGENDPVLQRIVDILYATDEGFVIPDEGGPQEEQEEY

Target: EB1 (yeast two-hybrid fusion) (human) (UniProt Q15691)
Assay: two-hybrid; Matchmaker 3 yeast two-hybrid system (Clontech), vectors pGBT9 and pGAD424, lacZ reporter, blue colonies on plates with X-Gal

binding: no binding
B1: Astrin (yeast two-hybrid fusion) (protein, UniProt Q96R06 1-1193)
chain: MWRVKKLSLSLSPSPQTGKPSMRTPLRELTLQPGALTNSGKRSPACSSLTPSLCKLGLQEGSNNSSPVDFVNNKRTDLSSEHFSHSSKWLETCQHESDEQPLDPIPQISSTPKTSEEAVDPLGNYMVKTIVLVPSPLGQQQDMIFEARLDTMAETNSISLNGPLRTDDLVREEVAPCMGDRFSEVAAVSEKPIFQESPSHLLEESPPNPCSEQLHCSKESLSSRTEAVREDLVPSESNAFLPSSVLWLSPSTALAADFRVNHVDPEEEIVEHGAMEEREMRFPTHPKESETEDQALVSSVEDILSTCLTPNLVEMESQEAPGPAVEDVGRILGSDTESWMSPLAWLEKGVNTSVMLENLRQSLSLPSMLRDAAIGTTPFSTCSVGTWFTPSAPQEKSTNTSQTGLVGTKHSTSETEQLLCGRPPDLTALSRHDLEDNLLSSLVILEVLSRQLRDWKSQLAVPHPETQDSSTQTDTSHSGITNKLQHLKESHEMGQALQQARNVMQSWVLISKELISLLHLSLLHLEEDKTTVSQESRRAETLVCCCFDLLKKLRAKLQSLKAEREEARHREEMALRGKDAAEIVLEAFCAHASQRISQLEQDLASMREFRGLLKDAQTQLVGLHAKQEELVQQTVSLTSTLQQDWRSMQLDYTTWTALLSRSRQLTEKLTVKSQQALQERDVAIEEKQEVSRVLEQVSAQLEECKGQTEQLELENSRLATDLRAQLQILANMDSQLKELQSQHTHCAQDLAMKDELLCQLTQSNEEQAAQWQKEEMALKHMQAELQQQQAVLAKEVRDLKETLEFADQENQVAHLELGQVECQLKTTLEVLRERSLQCENLKDTVENLTAKLASTIADNQEQDLEKTRQYSQKLGLLTEQLQSLTLFLQTKLKEKTEQETLLLSTACPPTQEHPLPNDRTFLGSILTAVADEEPESTPVPLLGSDKSAFTRVASMVSLQPAETPGMEESLAEMSIMTTELQSLCSLLQESKEEAIRTLQRKICELQARLQAQEEQHQEVQKAKEADIEKLNQALCLRYKNEKELQEVIQQQNEKILEQIDKSGELISLREEVTHLTRSLRRAETETKVLQEALAGQLDSNCQPMATNWIQEKVWLSQEVDKLRVMFLEMKNEKEKLMIKFQSHRNILEENLRRSDKELEKLDDIVQHIYKTLLSIPEVVRGCKELQGLLEFLS
